Assay results: patent publication US11332499B2 (Regents of the University of Minnesota, priority 2018, dated 2022)

test: general procedure: Fmoc solid-phase peptide synthesis; H-Pro-2-chlorotrityl resin (0.68 to 0.76 meq/g); HBTU/DIEA; cyclisation with BOP/HOBt; settings: whole synthesis, 214 nm, scale of the general procedure 0.05 mmol

Row | Substance | final HPLC purity
1 | c[Pro-Arg-Ine-Ine-Asn-Gly-Phe-DPro] | >96%
2 | c[Pro-Arg-Phe-Phe-Abu-Ala-Phe-DPro] | >98%
3 | c[Pro-Arg-Phe-Phe-Ala-Ala-Phe-DPro] | >99%
4 | c[Pro-Arg-Phe-Phe-Asa-Ser-Phe-DPro] | >96%
5 | c[Pro-Arg-Phe-Phe-Asn-Ala-Phe-DPro] | >99%
6 | c[Pro-Arg-Phe-Phe-Asn-Phe-The-DPro] | >97%
7 | c[Pro-Arg-Phe-Phe-Asp-Ala-Phe-DPro] | >99%
8 | c[Pro-Arg-Phe-Phe-DDap-Ala-Phe-DPro] | >95%
9 | c[Pro-Arg-Phe-Phe-Dap-Ala-Phe-DPro] | >98%
10 | c[Pro-Arg-Phe-Phe-Glu-Ala-Phe-DPro] | >99%
11 | c[Pro-Arg-Phe-Phe-His-Ala-Phe-DPro] | >96%
12 | c[Pro-Arg-Phe-Phe-Nle-Ala-Phe-DPro] | >99%
13 | c[Pro-Arg-Phe-Phe-Phe-Ala-Phe-DPro] | >98%
14 | c[Pro-Arg-Phe-Phe-Ser-A1a-Phe-DPro] | >99%
15 | c[Pro-Arg-Phe-Phe-Val-Ala-Phe-DPro] | >99%
16 | c[Pro-Arg-Ptie-Phe-Asn-His-Phe-DPro] | >99%
17 | cyclo(PRFFLAF[dP]) | >99%
18 | cyclo(PRFFNAA[dP]) | >97%
19 | cyclo(PRFFNDF[dP]) | >99%
20 | cyclo(PRFFNEF[dP]) | >98%
21 | cyclo(PRFFNKF[dP]) | >99%
22 | cyclo(PRFFNLF[dP]) | >98%
23 | cyclo(PRFFTAF[dP]) | >99%
24 | cyclo(PRFFWAF[dP]) | >97%

same assay, conditions: whole synthesis, 214 nm, scale of the general procedure 0.05 mmol, TFA salt

Row | Substance | final HPLC purity
25 | c[Pro-Arg-Phe-Phe-Asn-Ala-Cha-DPro] | >98%
26 | c[Pro-Arg-Phe-Phe-Asn-Ala-Gly-DPro] | >95%
27 | c[Pro-Arg-Phe-Phe-Asn-Ala-Leu-DPro] | >98%
28 | c[Pro-Arg-Phe-Phe-Asn-Ala-Lys-DPro] | >98%
29 | c[Pro-Arg-Phe-Phe-Asn-Ala-Nle-DPro] | >95%
30 | c[Pro-Arg-Phe-Phe-Asn-Ala-Ser-DPro] | >98%
31 | c[Pro-Arg-Phe-Phe-Asn-Ala-Trp-DPro] | >98%
32 | c[Pro-Arg-Phe-Phe-Asn-Ala-Tyr-DPro] | >98%
33 | c[Pro-Arg-Phe-Phe-Asn-Ala-hPhe-DPro] | >98%
34 | cyclo(PRFFNAD[dP]) | >95%

same assay, conditions: whole synthesis, analytical RP-HPLC, two solvent systems, 214 nm, scale of the general procedure 0.05 mmol

Row | Substance | final HPLC purity
35 | c[Pro-Arg-DPhe-DPhe-Asn-Ala-Phe-DPro] | >98%
36 | c[Pro-Arg-DPhe-Phe-Asn-Ala-Phe-DPro] | >99%
37 | c[Pro-Arg-Phe-DPhe-Asn-Ala-Phe-DPro] | >99%
38 | c[Pro-DArg-DPhe-DPhe-Asn-Ala-Phe-DPro] | >99%
39 | c[Pro-DArg-DPhe-Phe-Asn-Ala-Phe-DPro] | >96%
40 | c[Pro-DArg-Phe-DPhe-Asn-Ala-Phe-DPro] | >99%
41 | c[Pro-DArg-Phe-Phe- | >95%
42 | c[Pro-DArg-Phe-Phe-Asn-Ala-Phe-DPro] | >97%

Square brackets hold non-standard residues; d marks the D form.
